According to publication PMC10053710, “Influence of Lipidation Pattern of the KR12 Fragment of Peptide LL-37 on Its Antibacterial and Hemolytic Activities” (International Journal of Molecular Sciences, 2023):

Assays:
[1] = test system: Enterococcus faecium ATCC 700221; format: cell-based; details: calculated from MHC5 (hRBCs) and MIC
Protocol: (§1) Tests of the antibacterial activity were carried out as we just described. Briefly, for assays, the following strains of ESKAPE bacteria were chosen: Acinetobacter baumannii ATCC BAA-1605, Enterococcus faecium ATCC 700221, Klebsiella aerogenes ATCC 13048 (formerly Enterobacter aerogenes), Klebsiella pneumoniae ATCC 700603, and Pseudomonas aeruginosa ATCC 9027. Moreover, the reference strains of Staphylococcus aureus were used: S. aureus ATCC 25923, S. aureus ATCC 6538, S. aureus ATCC 33591 (MRSA), S. aureus ATCC 9144, and S. aureus ATCC 12598. Before experiments, all the strains were stored at −80 °C in Roti®-Store cryo vials (Carl Roth GmbH, Karlsruhe, Germany). To evaluate the activity of the compounds, bacteria were transferred into fresh Mueller–Hinton medium (Becton Dickinson, Warszawa, Poland) and incubated for 24 h at 37 °C. In the next step, bacterial inoculums were seeded on Mueller–Hinton agar plates (BioMaxima SA, Lublin, Poland) and incubated again for 24 h. The MIC values were determined using the broth microdilution method according to the Clinical and Laboratory Standards Institute Protocol. The initial inoculums of bacteria (0.5 × 10^5 colony forming units (CFU)/mL) prepared in Mueller–Hinton broth were exposed to the ranging concentrations of peptides (1–512 µg/mL). The experiments were conducted on 96-well microtiter plates, with a final volume of 100 µL. The inoculum densities were checked spectrophotometrically (Multiskan™ GO Microplate Spectrophotometer, Thermo Scientific, Waltham, MA, USA) at 600 nm. The results were read after incubation for 18 h at 37 °C. The MIC values were the lowest concentration at which a visible growth of microorganisms was inhibited. All experiments were conducted in triplicate. Moreover, positive (growth) and negative (sterility) controls were included.

[2] = test system: Klebsiella aerogenes ATCC 13048; format: cell-based; details: calculated from MHC5 (hRBCs) and MIC
Protocol: as §1

[3] = test system: Klebsiella pneumoniae ATCC 700603; format: cell-based; details: calculated from MHC5 (hRBCs) and MIC
Protocol: as §1

[4] = test system: Pseudomonas aeruginosa ATCC 9027; format: cell-based; details: calculated from MHC5 (hRBCs) and MIC
Protocol: as §1

[5] = calculated from MHC5 (hRBCs) and MIC
[6] = test system: reference strains of Staphylococcus aureus; format: cell-based; details: selectivity index, hRBC MHC5 over GM of MIC against S. aureus strains
Protocol: Selectivity indexes were calculated based on the MHC5 and geometric mean (GM) of MIC values against S. aureus strains.
as §1, with “The initial inoculums of bacteria (0.5 × 10^5 colony forming units (CFU)/mL) prepared in Mueller–Hinton broth were exposed to the ranging concentrations of peptides (1–512 µg/mL). The experiments were conducted on 96-well microtiter plates, with a final volume of 100 µL. The inoculum densities were checked spectrophotometrically (Multiskan™ GO Microplate Spectrophotometer, Thermo Scientific, Waltham, MA, USA) at 600 nm.” left out, “The MIC values were the lowest concentration at which a visible growth of microorganisms was inhibited. All experiments were conducted in triplicate. Moreover, positive (growth) and negative (sterility) controls were included.” left out

Compound | Selectivity index E. faecium [1] | Selectivity index K. aerogenes [2] | Selectivity index K. pneumoniae [3] | Selectivity index P. aeruginosa [4] | Selectivity index A. baumannii [5] | SI (MHC5/GM) [6]
CC[C@H](C)[C@H](NC(=O)[C@H](CCCNC(=N)N)NC(=O)[C@H](CCC(N)=O)NC(=O)[C@@H](NC(=O)[C@@H](NC(=O)[C@H](CCCNC(=N)N)NC(=O)[C@H](CCCCN)NC(=O)c1ccccc1)[C@@H](C)CC)C(C)C)C(=O)N[C@@H](CCCCN)C(=O)N[C@@H](CC(=O)O)C(=O)N[C@@H](Cc1ccccc1)C(=O)N[C@@H](CC(C)C)C(=O)N[C@@H](CCCNC(=N)N)C(N)=O [XV, Benzoic acid-KR12-NH2] (Bz-KRIVQRIKDFLR-NH2) | 64 | 8 | 8 | 4 | 16 | ≥16
CC[C@H](C)[C@H](NC(=O)[C@H](CCCNC(=N)N)NC(=O)[C@H](CCC(N)=O)NC(=O)[C@@H](NC(=O)[C@@H](NC(=O)[C@H](CCCNC(=N)N)NC(=O)[C@H](CCCCN)NC(=O)Cc1ccccc1)[C@@H](C)CC)C(C)C)C(=O)N[C@@H](CCCCN)C(=O)N[C@@H](CC(=O)O)C(=O)N[C@@H](Cc1ccccc1)C(=O)N[C@@H](CC(C)C)C(=O)N[C@@H](CCCNC(=N)N)C(N)=O [XVI, Phenylacetic acid-KR12-NH2] (PhAc-KRIVQRIKDFLR-NH2) | 32 | 4 | 4 | 2 | 8 | 6.06
CC[C@H](C)[C@H](NC(=O)[C@H](CCCNC(=N)N)NC(=O)[C@H](CCC(N)=O)NC(=O)[C@@H](NC(=O)[C@@H](NC(=O)[C@H](CCCNC(=N)N)NC(=O)[C@H](CCCCN)NC(=O)C#Cc1ccccc1)[C@@H](C)CC)C(C)C)C(=O)N[C@@H](CCCCN)C(=O)N[C@@H](CC(=O)O)C(=O)N[C@@H](Cc1ccccc1)C(=O)N[C@@H](CC(C)C)C(=O)N[C@@H](CCCNC(=N)N)C(N)=O [XX, Phenylpropiolic acid-KR12-NH2] (X2-KRIVQRIKDFLR-NH2) | 64 | 16 | 8 | 4 | 8 | –
CC[C@H](C)[C@H](NC(=O)[C@H](CCCNC(=N)N)NC(=O)[C@H](CCC(N)=O)NC(=O)[C@@H](NC(=O)[C@@H](NC(=O)[C@H](CCCNC(=N)N)NC(=O)[C@H](CCCCN)NC(=O)c1ccc(-c2ccccc2)cc1)[C@@H](C)CC)C(C)C)C(=O)N[C@@H](CCCCN)C(=O)N[C@@H](CC(=O)O)C(=O)N[C@@H](Cc1ccccc1)C(=O)N[C@@H](CC(C)C)C(=O)N[C@@H](CCCNC(=N)N)C(N)=O [XXI, 4-Phenylbenzoic acid-KR12-NH2] ({Benzoyl(4-Ph)}-KRIVQRIKDFLR-NH2) | 16 | 8 | 4 | 2 | 4 | –
KRIVQRIKDFLR-NH2 [I, KR12-NH2] | 4 | 1 | 1 | 4 | 2 | –

Where a SMILES comes first, the peptide text is derived from it. Where no end group is shown, it is not given here. The star is where a group is joined. Benzoyl(4-Ph) = O=C(c1ccc(-c2ccccc2)cc1)*; PhAc = O=C(Cc1ccccc1)*; X2 = O=C(C#Cc1ccccc1)*; Bz = O=C(c1ccccc1)*
